Reference: paper PMC12170886, “CHD8 interacts with BCL11A to induce oncogenic transcription in triple negative breast cancer” (The EMBO Journal, 2025)
These are yes or no findings as the source states them, for the method shown. In cells and extracts the contact can be indirect. These calls come from enrichment with a bait or labelling near it, and not all partners need be listed. For some of these results: No binding means not detected with the bait.

Chains of the proteins cited; added tags and fusions are not shown.
UniProt Q9QYE3: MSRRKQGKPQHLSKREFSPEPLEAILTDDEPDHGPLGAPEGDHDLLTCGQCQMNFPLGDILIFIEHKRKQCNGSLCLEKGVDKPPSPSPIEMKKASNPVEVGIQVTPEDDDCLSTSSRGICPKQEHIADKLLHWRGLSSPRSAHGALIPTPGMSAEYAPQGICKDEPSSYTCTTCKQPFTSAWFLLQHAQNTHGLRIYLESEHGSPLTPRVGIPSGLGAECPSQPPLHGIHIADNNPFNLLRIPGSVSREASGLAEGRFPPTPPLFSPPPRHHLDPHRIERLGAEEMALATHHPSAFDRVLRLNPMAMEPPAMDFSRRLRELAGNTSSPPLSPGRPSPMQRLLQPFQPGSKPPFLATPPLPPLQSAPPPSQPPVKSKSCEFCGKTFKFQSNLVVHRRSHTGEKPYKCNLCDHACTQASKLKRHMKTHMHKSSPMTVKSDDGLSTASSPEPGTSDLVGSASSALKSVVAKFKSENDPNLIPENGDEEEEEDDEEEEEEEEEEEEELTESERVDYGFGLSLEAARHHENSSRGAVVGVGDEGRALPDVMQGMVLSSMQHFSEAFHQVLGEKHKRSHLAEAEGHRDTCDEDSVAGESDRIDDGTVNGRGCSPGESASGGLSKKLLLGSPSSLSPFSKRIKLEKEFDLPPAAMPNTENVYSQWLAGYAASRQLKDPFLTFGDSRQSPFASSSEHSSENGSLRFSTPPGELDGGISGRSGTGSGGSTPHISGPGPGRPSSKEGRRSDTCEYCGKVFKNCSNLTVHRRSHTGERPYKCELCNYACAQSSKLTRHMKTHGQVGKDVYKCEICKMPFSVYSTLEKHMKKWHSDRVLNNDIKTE
UniProt Q9HCK8: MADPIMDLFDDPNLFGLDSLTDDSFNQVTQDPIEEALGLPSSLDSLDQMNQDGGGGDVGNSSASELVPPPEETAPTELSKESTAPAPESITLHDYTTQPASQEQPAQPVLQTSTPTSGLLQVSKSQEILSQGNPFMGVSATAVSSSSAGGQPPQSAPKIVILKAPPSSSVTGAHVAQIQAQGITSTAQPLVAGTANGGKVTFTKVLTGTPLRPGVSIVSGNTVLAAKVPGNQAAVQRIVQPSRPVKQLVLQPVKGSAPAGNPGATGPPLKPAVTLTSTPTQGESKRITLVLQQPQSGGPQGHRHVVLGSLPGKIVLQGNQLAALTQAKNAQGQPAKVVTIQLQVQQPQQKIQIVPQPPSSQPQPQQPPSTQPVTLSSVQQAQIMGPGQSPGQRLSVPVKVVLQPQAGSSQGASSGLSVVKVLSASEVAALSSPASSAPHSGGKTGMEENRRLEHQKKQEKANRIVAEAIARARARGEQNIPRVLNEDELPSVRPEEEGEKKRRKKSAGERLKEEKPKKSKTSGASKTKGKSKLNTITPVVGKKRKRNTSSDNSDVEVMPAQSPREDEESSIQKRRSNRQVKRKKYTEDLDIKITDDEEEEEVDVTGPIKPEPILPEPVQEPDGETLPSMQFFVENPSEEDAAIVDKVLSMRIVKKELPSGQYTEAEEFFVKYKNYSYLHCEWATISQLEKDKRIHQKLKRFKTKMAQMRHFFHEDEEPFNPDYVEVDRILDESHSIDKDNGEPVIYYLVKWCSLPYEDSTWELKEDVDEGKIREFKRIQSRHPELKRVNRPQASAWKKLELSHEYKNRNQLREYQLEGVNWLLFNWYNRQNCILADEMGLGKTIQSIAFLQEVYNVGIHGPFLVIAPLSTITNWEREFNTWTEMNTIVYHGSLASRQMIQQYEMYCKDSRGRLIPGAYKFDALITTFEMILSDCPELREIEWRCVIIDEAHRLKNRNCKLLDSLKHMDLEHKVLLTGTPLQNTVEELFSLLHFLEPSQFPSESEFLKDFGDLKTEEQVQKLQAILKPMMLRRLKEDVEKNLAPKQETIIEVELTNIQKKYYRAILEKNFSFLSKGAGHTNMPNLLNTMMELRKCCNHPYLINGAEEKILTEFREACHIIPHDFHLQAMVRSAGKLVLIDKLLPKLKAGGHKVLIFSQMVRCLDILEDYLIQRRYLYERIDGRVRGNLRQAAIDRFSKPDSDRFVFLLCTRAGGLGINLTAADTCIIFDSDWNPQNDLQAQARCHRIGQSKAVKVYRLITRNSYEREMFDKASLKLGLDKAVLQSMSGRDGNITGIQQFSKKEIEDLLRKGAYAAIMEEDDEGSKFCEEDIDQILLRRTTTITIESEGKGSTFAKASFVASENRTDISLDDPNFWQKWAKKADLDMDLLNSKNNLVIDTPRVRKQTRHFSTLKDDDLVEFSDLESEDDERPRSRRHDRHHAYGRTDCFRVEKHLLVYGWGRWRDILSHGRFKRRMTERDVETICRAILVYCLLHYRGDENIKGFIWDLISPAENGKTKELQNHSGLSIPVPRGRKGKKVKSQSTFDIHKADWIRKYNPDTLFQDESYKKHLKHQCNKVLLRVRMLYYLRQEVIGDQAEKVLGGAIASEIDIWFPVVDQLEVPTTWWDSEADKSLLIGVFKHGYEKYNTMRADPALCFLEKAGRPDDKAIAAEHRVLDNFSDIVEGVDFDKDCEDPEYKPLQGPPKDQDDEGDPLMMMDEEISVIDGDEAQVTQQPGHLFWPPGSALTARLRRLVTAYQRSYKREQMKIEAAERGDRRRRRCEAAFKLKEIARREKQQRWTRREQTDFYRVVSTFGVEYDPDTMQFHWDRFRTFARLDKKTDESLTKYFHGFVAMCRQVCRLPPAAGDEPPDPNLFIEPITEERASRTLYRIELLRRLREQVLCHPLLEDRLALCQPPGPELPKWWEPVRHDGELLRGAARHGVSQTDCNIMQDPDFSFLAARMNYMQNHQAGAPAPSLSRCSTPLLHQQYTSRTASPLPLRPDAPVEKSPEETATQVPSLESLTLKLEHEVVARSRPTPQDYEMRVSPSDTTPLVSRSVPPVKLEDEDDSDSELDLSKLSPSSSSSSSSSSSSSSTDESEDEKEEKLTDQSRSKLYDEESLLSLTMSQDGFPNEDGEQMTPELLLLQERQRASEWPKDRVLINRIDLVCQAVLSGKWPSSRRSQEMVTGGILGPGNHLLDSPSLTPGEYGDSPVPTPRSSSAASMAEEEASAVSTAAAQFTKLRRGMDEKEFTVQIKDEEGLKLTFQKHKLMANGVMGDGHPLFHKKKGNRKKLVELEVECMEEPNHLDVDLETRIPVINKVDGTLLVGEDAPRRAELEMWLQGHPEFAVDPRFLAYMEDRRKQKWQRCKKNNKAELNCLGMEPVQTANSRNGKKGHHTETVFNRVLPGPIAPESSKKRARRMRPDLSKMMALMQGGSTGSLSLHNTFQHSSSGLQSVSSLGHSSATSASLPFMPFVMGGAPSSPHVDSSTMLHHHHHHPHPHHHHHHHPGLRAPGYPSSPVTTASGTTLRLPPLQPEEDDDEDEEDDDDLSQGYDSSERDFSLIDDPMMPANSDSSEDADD
UniProt Q09XV5: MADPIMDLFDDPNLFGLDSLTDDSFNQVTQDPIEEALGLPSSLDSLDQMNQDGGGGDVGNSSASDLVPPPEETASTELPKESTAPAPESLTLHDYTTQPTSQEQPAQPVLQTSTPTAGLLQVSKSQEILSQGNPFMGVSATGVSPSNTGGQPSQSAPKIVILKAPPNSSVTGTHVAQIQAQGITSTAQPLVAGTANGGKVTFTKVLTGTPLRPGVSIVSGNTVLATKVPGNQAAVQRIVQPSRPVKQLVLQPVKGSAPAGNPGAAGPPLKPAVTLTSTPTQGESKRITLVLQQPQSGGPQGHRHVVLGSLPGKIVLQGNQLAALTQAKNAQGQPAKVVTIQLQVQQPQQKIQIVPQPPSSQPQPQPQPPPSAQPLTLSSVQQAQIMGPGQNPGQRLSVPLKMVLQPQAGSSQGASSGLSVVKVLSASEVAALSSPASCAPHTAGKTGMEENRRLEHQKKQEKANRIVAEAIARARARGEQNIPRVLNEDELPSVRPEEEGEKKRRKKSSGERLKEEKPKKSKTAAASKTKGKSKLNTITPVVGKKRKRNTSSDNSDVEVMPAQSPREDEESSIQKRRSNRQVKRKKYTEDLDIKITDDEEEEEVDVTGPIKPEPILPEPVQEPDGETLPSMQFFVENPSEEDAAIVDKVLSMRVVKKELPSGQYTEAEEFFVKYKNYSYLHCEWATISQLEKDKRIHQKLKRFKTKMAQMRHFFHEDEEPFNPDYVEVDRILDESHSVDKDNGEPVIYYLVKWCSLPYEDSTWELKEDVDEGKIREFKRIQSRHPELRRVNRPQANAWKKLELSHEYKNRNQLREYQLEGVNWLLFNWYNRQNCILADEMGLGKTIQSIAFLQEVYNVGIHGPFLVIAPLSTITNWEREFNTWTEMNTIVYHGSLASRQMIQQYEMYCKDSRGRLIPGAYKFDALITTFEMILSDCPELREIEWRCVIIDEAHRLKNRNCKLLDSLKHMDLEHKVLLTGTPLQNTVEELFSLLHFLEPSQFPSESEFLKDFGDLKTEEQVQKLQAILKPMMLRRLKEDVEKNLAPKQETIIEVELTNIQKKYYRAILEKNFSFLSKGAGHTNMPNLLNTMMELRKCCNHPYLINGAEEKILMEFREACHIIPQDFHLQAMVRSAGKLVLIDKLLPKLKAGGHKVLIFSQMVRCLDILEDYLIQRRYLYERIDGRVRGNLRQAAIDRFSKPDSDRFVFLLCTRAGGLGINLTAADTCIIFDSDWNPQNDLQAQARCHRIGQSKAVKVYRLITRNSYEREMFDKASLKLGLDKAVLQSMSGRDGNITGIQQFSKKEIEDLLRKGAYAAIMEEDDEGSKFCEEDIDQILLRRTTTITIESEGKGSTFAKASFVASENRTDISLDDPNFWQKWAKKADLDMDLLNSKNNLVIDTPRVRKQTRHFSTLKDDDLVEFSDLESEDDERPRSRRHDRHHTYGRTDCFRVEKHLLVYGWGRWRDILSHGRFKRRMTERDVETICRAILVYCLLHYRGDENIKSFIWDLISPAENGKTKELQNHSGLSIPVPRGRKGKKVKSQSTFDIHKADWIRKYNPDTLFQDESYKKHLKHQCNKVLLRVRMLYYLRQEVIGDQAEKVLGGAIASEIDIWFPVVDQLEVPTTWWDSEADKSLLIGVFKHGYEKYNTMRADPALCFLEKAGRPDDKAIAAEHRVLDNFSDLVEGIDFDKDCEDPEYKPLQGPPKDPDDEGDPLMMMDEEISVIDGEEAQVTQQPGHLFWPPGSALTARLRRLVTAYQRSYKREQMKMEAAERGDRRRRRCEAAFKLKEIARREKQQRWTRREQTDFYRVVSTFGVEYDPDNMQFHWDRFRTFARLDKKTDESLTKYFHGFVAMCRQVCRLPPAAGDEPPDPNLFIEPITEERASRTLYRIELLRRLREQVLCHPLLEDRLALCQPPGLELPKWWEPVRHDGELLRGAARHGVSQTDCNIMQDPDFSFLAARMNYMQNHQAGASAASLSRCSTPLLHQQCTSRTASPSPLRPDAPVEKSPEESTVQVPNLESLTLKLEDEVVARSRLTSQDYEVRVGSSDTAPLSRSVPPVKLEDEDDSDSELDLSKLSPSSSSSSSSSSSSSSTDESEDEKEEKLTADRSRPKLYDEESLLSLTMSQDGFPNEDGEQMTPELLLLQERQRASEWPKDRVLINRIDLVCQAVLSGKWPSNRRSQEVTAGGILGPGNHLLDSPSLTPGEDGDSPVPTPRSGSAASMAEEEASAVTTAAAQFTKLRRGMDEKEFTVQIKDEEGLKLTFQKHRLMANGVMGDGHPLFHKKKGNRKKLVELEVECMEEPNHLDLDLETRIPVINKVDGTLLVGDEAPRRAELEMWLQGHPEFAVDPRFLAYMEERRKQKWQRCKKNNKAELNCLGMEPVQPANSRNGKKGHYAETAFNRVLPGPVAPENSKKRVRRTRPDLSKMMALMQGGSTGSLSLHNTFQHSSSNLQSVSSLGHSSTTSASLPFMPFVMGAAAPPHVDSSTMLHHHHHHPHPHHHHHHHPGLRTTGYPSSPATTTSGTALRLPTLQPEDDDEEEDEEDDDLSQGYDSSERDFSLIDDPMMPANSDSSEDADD

Experiments:
[1] = target: BCL11A (endogenous, human TNBC samples) (human (endogenous in MDA-MB-231 and patient-derived xenografts)) (UniProt Q9H165); assay: affinity purification with mass spectrometry; RIME: TNBC samples (MDA-MB-231, 4T1, PDX) cross-linked with 1% formaldehyde, nuclear fraction sonicated, IP with anti-BCL11A (Bethyl A300-382A) on Protein G magnetic beads overnight at 4 °C, RIPA washes, on-bead trypsin digest, LC-MS/MS; IgG control
[2] = target: Bcl11a (endogenous, mouse) (mouse (endogenous in 4T1, primary B-cells, brain, spleen)) (UniProt Q9QYE3); assay: as above
[3] = target: Bcl11a (endogenous, mouse) (mouse (endogenous in 4T1, primary B-cells, brain, spleen)) (UniProt Q9QYE3); assay: condition: only in wild-type female mouse brain tissue; affinity purification with mass spectrometry; BCL11A RIME on wild-type female mouse brain tissue
[4] = target: Bcl11a (endogenous, mouse) (mouse (endogenous in 4T1, primary B-cells, brain, spleen)) (UniProt Q9QYE3); assay: affinity purification with mass spectrometry; RIME as for the TNBC samples, on primary B-cells of C57BL/6 mice; IP with anti-BCL11A

| binding [1] | binding [2] | binding [3] | Substance | binding [4] |
| --- | --- | --- | --- | --- |
| binds | – | – | CHD8 (endogenous, human TNBC samples) (from UniProt Q9HCK8 1-2581) | – |
| – | binds | no binding | Chd8 (endogenous, mouse) (from UniProt Q09XV5 1-2582) | no binding (only in primary mouse B-cells) |
